Reference: patent US20060275211A1
These are yes or no findings as the source states them, for the method shown. Some results given as binding are weak or reduced against the parent protein; the word gives no strength.

Protein sequences, listed by entry. Tags and fused reporters are not part of them. Lines headed by an entry give the natural chain unless they say otherwise; changes in a name come on top.
UniProt O14638: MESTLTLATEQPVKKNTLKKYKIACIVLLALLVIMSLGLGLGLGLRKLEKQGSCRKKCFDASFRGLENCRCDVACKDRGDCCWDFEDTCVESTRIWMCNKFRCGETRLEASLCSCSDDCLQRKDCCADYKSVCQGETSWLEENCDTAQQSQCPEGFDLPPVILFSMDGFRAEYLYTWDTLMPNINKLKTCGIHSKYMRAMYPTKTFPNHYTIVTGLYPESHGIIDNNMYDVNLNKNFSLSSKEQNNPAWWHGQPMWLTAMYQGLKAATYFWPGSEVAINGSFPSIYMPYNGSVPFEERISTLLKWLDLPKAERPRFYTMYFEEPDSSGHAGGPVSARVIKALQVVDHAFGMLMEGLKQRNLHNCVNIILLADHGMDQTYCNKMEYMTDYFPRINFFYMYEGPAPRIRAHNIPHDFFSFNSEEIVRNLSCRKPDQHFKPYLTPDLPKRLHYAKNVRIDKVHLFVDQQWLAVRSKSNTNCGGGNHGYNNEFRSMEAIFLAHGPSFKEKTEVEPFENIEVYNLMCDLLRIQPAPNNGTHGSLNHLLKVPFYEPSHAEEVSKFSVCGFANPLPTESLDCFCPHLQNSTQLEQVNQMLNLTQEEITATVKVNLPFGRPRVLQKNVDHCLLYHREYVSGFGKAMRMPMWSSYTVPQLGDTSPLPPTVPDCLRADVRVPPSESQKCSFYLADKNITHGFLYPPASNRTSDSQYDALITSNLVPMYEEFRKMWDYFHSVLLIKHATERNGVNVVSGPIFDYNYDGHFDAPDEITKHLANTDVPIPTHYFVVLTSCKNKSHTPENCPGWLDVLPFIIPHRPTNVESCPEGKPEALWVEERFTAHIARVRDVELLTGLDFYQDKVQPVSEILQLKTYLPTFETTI
UniProt Q6DYE8: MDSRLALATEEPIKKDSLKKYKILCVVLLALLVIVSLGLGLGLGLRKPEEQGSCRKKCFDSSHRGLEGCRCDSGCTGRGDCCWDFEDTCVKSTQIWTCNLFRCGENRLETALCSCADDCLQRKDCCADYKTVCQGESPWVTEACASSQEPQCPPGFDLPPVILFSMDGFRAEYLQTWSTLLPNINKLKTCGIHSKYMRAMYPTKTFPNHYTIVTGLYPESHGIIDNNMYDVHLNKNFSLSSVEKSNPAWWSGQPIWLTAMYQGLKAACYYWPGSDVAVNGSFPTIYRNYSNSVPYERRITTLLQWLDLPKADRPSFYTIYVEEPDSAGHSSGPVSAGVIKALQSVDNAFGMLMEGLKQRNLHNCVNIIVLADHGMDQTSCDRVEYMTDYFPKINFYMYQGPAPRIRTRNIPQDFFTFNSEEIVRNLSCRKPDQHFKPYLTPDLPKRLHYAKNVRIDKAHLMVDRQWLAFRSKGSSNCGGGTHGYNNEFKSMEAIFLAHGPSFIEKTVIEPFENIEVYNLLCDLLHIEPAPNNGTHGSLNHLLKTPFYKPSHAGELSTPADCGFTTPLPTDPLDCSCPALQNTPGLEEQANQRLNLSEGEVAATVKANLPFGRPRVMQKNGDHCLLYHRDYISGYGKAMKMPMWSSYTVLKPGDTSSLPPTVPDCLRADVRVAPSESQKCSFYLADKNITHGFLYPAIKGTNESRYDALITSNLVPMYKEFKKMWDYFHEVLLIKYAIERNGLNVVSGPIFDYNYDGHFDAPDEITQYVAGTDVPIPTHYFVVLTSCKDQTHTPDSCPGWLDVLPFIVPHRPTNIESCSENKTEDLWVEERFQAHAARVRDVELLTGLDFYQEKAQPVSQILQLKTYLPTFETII

What was measured:
[1] = target: 161P2F10B protein (human), expressed on the cell surface (human) (UniProt O14638); assay: flow cytometry on cells or ELISA on immobilized 161P2F10B
[2] = target: 161P2F10B protein (human), expressed on the cell surface (human) (UniProt O14638); assay: FACS on UG-K3 cells (open line) vs filled negative-control histogram, anti-hIgG-PE
[3] = target: 161P2F10B protein (human), expressed on the cell surface (human) (UniProt O14638); assay: FACS on CAKI-161P2F10B and UG-K3 cells (FIG. 6 and FIG. 7)
[4] = target: 161P2F10B protein (human), expressed on the cell surface (human) (UniProt O14638); assay: FACS: Caki-161P2F10B cells (open line) vs Caki Neo cells (filled), anti-hIgG-PE
[5] = target: 161P2F10B protein (human), expressed on the cell surface (human) (UniProt O14638); assay: FACS on UG-K3 cells, biotinylated MAb, streptavidin-PE; buffer rows of the competition table
[6] = target: mouse 161P2F10B expressed on 293T cells (mouse) (UniProt Q6DYE8); assay: FACS: 293T-mouse 161P2F10B cells (open line) vs 293T-neo cells (filled), MAb 2 µg/mL, anti-hIgG-PE

Measured: binding

B1: H16-1(3,5)5 (antibody, V domains shown)
VH: EVQLVQSGAEVKKPGESLKISCKGSGYRFTSYWIGWVRQMPGKGLEWMGIIYPGDSDTRYSPSFQGQVTISADKSISTAYLQWSSLKASDTAMYYCARKDYYYYTMDVWGQGTTVTVSS
VL: QSALTQPASVSGSPGQSITISCTGTSSDVGGYNYVSWYQQHPGKAPKLMIYAVSNRPSGVSNRFSGSKSGNTASLTISGLQAEDEADYYCSSYTISRILVVFGGGTKLTVLG
not listed: [6]
binds: all other assays above

B2: H16-9.10 (antibody, V domains shown)
VH: LLESGPGLVKPSQTLSLTCAISGDSVSSNSAAWNWIRQSPSRGLEWLGRTYYRSKWYNAYAVSVKSRMTINPDTSKNQFSLQLNSVTPEDTAVYYCAREAGGWFDPWGQGTLVTVSS
VL: DIQMTQSPSSVSASVGDRVTITCRASQGIRSWLAWYQQKPGKAPKLLIYAASSLQSGVPSRFSGSGSGTDFTLTISSLQPEDFATYYCQQANSFPPTFGGGTKVEIKR
binds: [1] | [2] | [3] | [4]

B3: H16-9.33 (antibody, V domains shown)
VH: EVQLLESGPGLVKPSQTLSLTCAISGDSVSSNSAAWNWIRQSPSRGLEWLGRTYYRSKYYNAYPVSVKSRITINPDTSKNQFSLQLNSVTPEDTAVYYCAREAGGWFDPWGQGTLVTVSS
VL: DIQMTQSPSSVSASVGDRVTITCRANQGIRSWLAWYQQKPGKAPKLLIYAASSLQSGVPSRFSGSGSGTDFTLTISSLQPEDFATYYCQQANSFPPTFGGGTKVEIKR
binds: [1] | [3] | [6]

B4: Ha16-1(3,5)27.1 (antibody, V domains shown)
VH: LVESGAEVKKPGESLKISCKGSGYRFTSYWIGWVRQMPGKGLEWMGIIYPGDSDTRYSPSFQGQVTISADKSISTAYLQWSSLKASDTAMYYCARKDYYYYSMDVWGQGTTVTVSS
VL: GQSALTQPASVSGSPGQSITISCTGTSSDVGGYNYVSWYQQHPGQAPKLLIYGVNIRPSGVSTRFSGSKSGNTASLTISGLQAEDEADYYCSSYTRSSILVVFAGGTKLTVLG
binds: [1] | [2] | [3] | [4]
